The other results are listed elsewhere or left out.
Tests used:
Assay in all cases: glycan array binding signal (z-score within array); higher = stronger binding
Conditions in all cases: glycan notation: IUPAC condensed, linker removed
[1] = molecular target: Neu5Ac(a2-6)Gal(b1-4)GlcNAc(b1-2)Man(a1-3)[GlcNAc(b1-4)][Neu5Ac(a2-6)Gal(b1-4)GlcNAc(b1-2)Man(a1-6)]Man(b1-4)GlcNAc(b1-4)GlcNAc
Procedure, shortened: (§1)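 Negative Z-scores can be read as non-binding. The Z-score is calculated within each array and then averaged across arrays of one protein sequence at different concentrations or buffers and across linkers. Arrays, 3228 in all, were curated from the Consortium for Functional Glycomics database and kept only where the protein sequence was available.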

[2] = molecular target: Neu5Ac(a2-6)Gal(b1-4)GlcNAc(b1-2)Man(a1-3)[Man(a1-6)]Man(b1-4)GlcNAc(b1-4)GlcNAc
Procedure, shortened: as §1

[3] = molecular target: Neu5Ac(a2-6)Gal(b1-4)GlcNAc(b1-2)Man(a1-3)[Neu5Ac(a2-3)Gal(b1-4)GlcNAc(b1-2)Man(a1-6)]Man(b1-4)GlcNAc(b1-4)GlcNAc
Procedure, shortened: as §1

[4] = molecular target: Neu5Ac(a2-6)Gal(b1-4)GlcNAc(b1-2)Man(a1-3)[Neu5Ac(a2-6)Gal(b1-4)GlcNAc(b1-2)Man(a1-6)]Man(b1-4)GlcNAc(b1-4)GlcNAc
Procedure, shortened: as §1

[5] = molecular target: Neu5Ac(a2-6)Gal(b1-4)GlcNAc(b1-2)Man(a1-3)[Neu5Ac(a2-6)Gal(b1-4)GlcNAc(b1-2)Man(a1-6)]Man(b1-4)GlcNAc(b1-4)[Fuc(a1-6)]GlcNAc
Procedure, shortened: as §1

[6] = molecular target: Neu5Ac(a2-6)Gal(b1-4)GlcNAc(b1-2)Man(a1-6)Man(b1-4)GlcNAc(b1-4)GlcNAc
Procedure, shortened: as §1

[7] = molecular target: Neu5Ac(a2-6)Gal(b1-4)GlcNAc(b1-2)Man(a1-6)[Gal(b1-4)GlcNAc(b1-2)Man(a1-3)]Man(b1-4)GlcNAc(b1-4)GlcNAc
Procedure, shortened: as §1

[8] = molecular target: Neu5Ac(a2-6)Gal(b1-4)GlcNAc(b1-2)Man(a1-6)[GlcNAc(b1-2)Man(a1-3)]Man(b1-4)GlcNAc(b1-4)GlcNAc
Procedure, shortened: as §1

[9] = molecular target: Neu5Ac(a2-6)Gal(b1-4)GlcNAc(b1-2)Man(a1-6)[Man(a1-3)]Man(b1-4)GlcNAc(b1-4)GlcNAc
Procedure, shortened: as §1

[10] = molecular target: Neu5Ac(a2-6)Gal(b1-4)GlcNAc(b1-2)[Neu5Ac(a2-6)Gal(b1-4)GlcNAc(b1-4)]Man(a1-3)[GlcNAc(b1-4)][Neu5Ac(a2-6)Gal(b1-4)GlcNAc(b1-2)[Neu5Ac(a2-6)Gal(b1-4)GlcNAc(b1-6)]Man(a1-6)]Man(b1-4)GlcNAc(b1-4)GlcNAc
Procedure, shortened: as §1

[11] = molecular target: Neu5Ac(a2-6)Gal(b1-4)GlcNAc(b1-2)[Neu5Ac(a2-6)Gal(b1-4)GlcNAc(b1-4)]Man(a1-3)[GlcNAc(b1-4)][Neu5Ac(a2-6)Gal(b1-4)GlcNAc(b1-4)Man(a1-6)]Man(b1-4)GlcNAc(b1-4)GlcNAc
Procedure, shortened: as §1

[12] = molecular target: Neu5Ac(a2-6)Gal(b1-4)GlcNAc(b1-2)[Neu5Ac(a2-6)Gal(b1-4)GlcNAc(b1-6)]Man(a1-6)[Neu5Ac(a2-6)Gal(b1-4)GlcNAc(b1-2)Man(a1-3)][GlcNAc(b1-4)]Man(b1-4)GlcNAc(b1-4)GlcNAc
Procedure, shortened: as §1

[13] = molecular target: Neu5Ac(a2-6)Gal(b1-4)GlcNAc(b1-3)Gal(b1-3)GlcNAc
Procedure, shortened: as §1

[14] = molecular target: Neu5Ac(a2-6)Gal(b1-4)GlcNAc(b1-3)Gal(b1-4)GlcNAc
Procedure, shortened: as §1

[15] = molecular target: Neu5Ac(a2-6)Gal(b1-4)GlcNAc(b1-3)Gal(b1-4)GlcNAc(b1-2)Man(a1-3)[Neu5Ac(a2-6)Gal(b1-4)GlcNAc(b1-3)Gal(b1-4)GlcNAc(b1-2)Man(a1-6)]GalNAc
Procedure, shortened: as §1

[16] = molecular target: Neu5Ac(a2-6)Gal(b1-4)GlcNAc(b1-3)Gal(b1-4)GlcNAc(b1-3)Gal(b1-4)GlcNAc
Procedure, shortened: as §1

[17] = molecular target: Neu5Ac(a2-6)Gal(b1-4)GlcNAc(b1-3)Gal(b1-4)GlcNAc(b1-3)Gal(b1-4)GlcNAc(b1-2)Man(a1-3)[Neu5Ac(a2-6)Gal(b1-4)GlcNAc(b1-3)Gal(b1-4)GlcNAc(b1-3)Gal(b1-4)GlcNAc(b1-2)Man(a1-6)]GalNAc
Procedure, shortened: as §1

[18] = molecular target: Neu5Ac(a2-6)Gal(b1-4)GlcNAc(b1-3)Gal(b1-4)GlcNAc(b1-3)GalNAc
Procedure, shortened: as §1

[19] = molecular target: Neu5Ac(a2-6)Gal(b1-4)GlcNAc(b1-3)Gal(b1-4)GlcNAc(b1-3)[Neu5Ac(a2-6)Gal(b1-4)GlcNAc(b1-3)Gal(b1-4)GlcNAc(b1-6)]GalNAc
Procedure, shortened: as §1

[20] = molecular target: Neu5Ac(a2-6)Gal(b1-4)GlcNAc(b1-3)Gal(b1-4)GlcNAc(b1-6)[Gal(b1-3)]GalNAc
Procedure, shortened: as §1

[21] = molecular target: Neu5Ac(a2-6)Gal(b1-4)GlcNAc(b1-3)Gal(b1-4)[Fuc(a1-3)]GlcNAc(b1-3)Gal(b1-4)[Fuc(a1-3)]GlcNAc
Procedure, shortened: as §1

[22] = molecular target: Neu5Ac(a2-6)Gal(b1-4)GlcNAc(b1-3)GalNAc
Procedure, shortened: as §1

[23] = molecular target: Neu5Ac(a2-6)Gal(b1-4)GlcNAc(b1-3)[Neu5Ac(a2-6)Gal(b1-4)GlcNAc(b1-6)]GalNAc
Procedure, shortened: as §1

[24] = molecular target: Neu5Ac(a2-6)Gal(b1-4)GlcNAc(b1-6)GalNAc
Procedure, shortened: as §1

[25] = molecular target: Neu5Ac(a2-6)Gal(b1-4)GlcNAc(b1-6)[Gal(b1-3)GlcNAc(b1-3)]Gal(b1-4)Glc
Procedure, shortened: as §1

[26] = molecular target: Neu5Ac(a2-6)Gal(b1-4)GlcNAc(b1-6)[Gal(b1-3)]GalNAc
Procedure, shortened: as §1

[27] = molecular target: Neu5Ac(a2-6)Gal(b1-4)GlcNAc6S
Procedure, shortened: as §1

Neu5Ac(a2-6)GalNAc = molecular target: Neu5Ac(a2-6)GalNAc
Procedure, shortened: as §1

[28] = molecular target: Neu5Ac(a2-6)GalNAc(b1-4)GlcNAc
Procedure, shortened: as §1

[29] = molecular target: Neu5Ac(a2-6)GalNAc(b1-4)GlcNAc6S
Procedure, shortened: as §1

[30] = molecular target: Neu5Ac(a2-6)GlcNAc(b1-4)GlcNAc
Procedure, shortened: as §1

B1: LlpA (Arthrobacter sp) (protein)
chain: MGSSHHHHHHSSGLVPRGSHMTLHPETALRPGAAATSPNSRYRLLYQTDGNLVLYGPDGPLWDSGTNGHGAGACIMQADGNLVLYGPNDEYVWDTETDNNPGSRLVIQDDGNAVIYRPDGSPLWATETCQPPGSADSHVLQSGSTLTPTHGIRSANGLYGLLYQTDGNLVFYGPDGPLWDSGTNGRGAGACIMQPDGNLVLYGPHDEYVWDTETDNNPGSRLVIQDDGNAVIYRPDGNPTWVTGTH
[1]
  glycan array binding signal (z-score): 0.531
[2]
  glycan array binding signal (z-score): 1.21
[3]
  glycan array binding signal (z-score): -0.207
[4]
  glycan array binding signal (z-score): 0.224
[5]
  glycan array binding signal (z-score): 2.31
[6]
  glycan array binding signal (z-score): 0.4
[7]
  glycan array binding signal (z-score): -0.868
[8]
  glycan array binding signal (z-score): 0.209
[9]
  glycan array binding signal (z-score): 0.502
[10]
  glycan array binding signal (z-score): -0.712
[11]
  glycan array binding signal (z-score): -0.394
[12]
  glycan array binding signal (z-score): -0.017
[13]
  glycan array binding signal (z-score): -0.33
[14]
  glycan array binding signal (z-score): -1.17
[15]
  glycan array binding signal (z-score): -0.464
[16]
  glycan array binding signal (z-score): 0.262
[17]
  glycan array binding signal (z-score): 2.47
[18]
  glycan array binding signal (z-score): 0.214
[19]
  glycan array binding signal (z-score): 0.568
[20]
  glycan array binding signal (z-score): -0.279
[21]
  glycan array binding signal (z-score): 0.982
[22]
  glycan array binding signal (z-score): -0.34
[23]
  glycan array binding signal (z-score): 0.482
[24]
  glycan array binding signal (z-score): -0.174
[25]
  glycan array binding signal (z-score): -0.86
[26]
  glycan array binding signal (z-score): -0.378
[27]
  glycan array binding signal (z-score): -0.463
Neu5Ac(a2-6)GalNAc
  glycan array binding signal (z-score): -1.44
[28]
  glycan array binding signal (z-score): -1.55
[29]
  glycan array binding signal (z-score): -0.585
[30]
  glycan array binding signal (z-score): -0.282
